PubChem BioAssay AID504784 – Drosophila RNAi Screening Center – 2011
Screen: 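Search for regulators of lipid droplet storage in oleate-fed fly cells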 (primary screen). System: Drosophila Kc167 embryonic cells. Reagents: long dsRNA against Drosophila genes, about 250 ng dsRNA per well. Time to read-out: 4 days. Challenge: cells fed 400 µM oleic acid bound to BSA. Measurement: 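Microscope images give a droplet-to-nucleus area ratio, taken as log and converted to a screen-wide B-score; higher values mean greater lipid storage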. Scale: droplet/nuclear area B-score: higher = more stored lipid (overstorage).
In all, the deposit lists about 17,000 reagents; this is an unselected part of those with a known target gene and a result. 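Each column is one replicate's B-score; the combined score over replicates was not deposited, so single values may mislead.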 Names joined by + are all predicted targets of the reagent. Further read-outs or replicates are left out here.

SelT [DRSC02732] | droplet/nuclear area B-score, replicate 1 = 3.15
CG6788 + CR32496 [DRSC22043] | droplet/nuclear area B-score, replicate 1 = 0.383
CG15431 [DRSC00446] | droplet/nuclear area B-score, replicate 1 = 0.72
CG14883 [DRSC15007] | droplet/nuclear area B-score, replicate 1 = -0.375
mth [DRSC08725] | droplet/nuclear area B-score, replicate 1 = -0.305
Syngr [DRSC06003] | droplet/nuclear area B-score, replicate 1 = -0.00107
Mst98Cb [DRSC16750] | droplet/nuclear area B-score, replicate 1 = -0.0903
Mst98Cb [DRSC22495] | droplet/nuclear area B-score, replicate 1 = -0.0253

An excerpt from the list above, for reference:
SelT [DRSC02732] | droplet/nuclear area B-score, replicate 1 = 3.15
CG6788 + CR32496 [DRSC22043] | droplet/nuclear area B-score, replicate 1 = 0.383

Continued:
ttm3 [DRSC03736] | droplet/nuclear area B-score, replicate 1 = 0.498
CG1368 [DRSC19537] | droplet/nuclear area B-score, replicate 1 = 0.621
mRpL9 [DRSC15678] | droplet/nuclear area B-score, replicate 1 = 0.823
CG42561 [DRSC05676] | droplet/nuclear area B-score, replicate 1 = 0.0554
FipoQ [DRSC15413] | droplet/nuclear area B-score, replicate 1 = 0.611
nanos [DRSC17018] | droplet/nuclear area B-score, replicate 1 = 0.853
CG46339 [DRSC14136] | droplet/nuclear area B-score, replicate 1 = -0.461
Arf1 [DRSC11606] | droplet/nuclear area B-score, replicate 1 = 7.13
